Laboratory results: the supplement of paper PMC12009310
Structures can show the parent of a compound that is named as a salt. ± gives the standard deviation of the averaged measurements. This is one part of the list. Plates or batches differ in their baseline, so values are only roughly comparable.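 The cells are a mouse kidney inner medullary collecting duct line, silenced either for the ciliary gene Rpgrip1l or with a non-targeting control siRNA. Primary scores are means of two runs against batch controls; in the follow-up screen a hit raised cilia by at least 2 over its matching control, and compounds dropping cell number by 2 or more were excluded. The cells are a mouse kidney inner medullary collecting duct line, silenced either for the ciliary gene Rpgrip1l or with a non-targeting control siRNA.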

Columns and labels:
mIMCD3 [1] = assay: robust z score of cell number vs plate controls; higher = more cells (less cytotoxic); conditions: 10 µM, 48 h
mIMCD3 [2] = assay: robust z cell number difference from vehicle control (robust z score difference); higher = more cells; conditions: 10 µM, 48 h
mIMCD3 [3] = assay: robust z score of cilia incidence (% cells with single cilium) vs plate controls; higher = more ciliated cells; conditions: 10 µM; 48 h; siRNA: siScr
mIMCD3 [4] = assay: robust z cilia incidence difference from vehicle control (robust z score difference); higher = more ciliated cells; conditions: 10 µM; 48 h; siRNA: siScr
mIMCD3 [5] = assay: robust z cilia incidence difference from vehicle control (robust z score difference); higher = more ciliated cells (rescue); conditions: 10 µM; 48 h; siRNA: siRpgrip1l
mIMCD3 [6] = assay: robust z score of cilia incidence (% cells with single cilium) vs plate controls; higher = more ciliated cells (rescue of cilia loss); conditions: 10 µM; 48 h; siRNA: siRpgrip1l

SMILES | robust z score of cell number (mIMCD3 [1]; siRNA: siRpgrip1l) | robust z score of cell number (mIMCD3 [1]; siRNA: siScr) | robust z cell number difference (mIMCD3 [2]; siRNA: siRpgrip1l) | robust z cell number difference (mIMCD3 [2]; siRNA: siScr) | robust z score of cilia incidence (mIMCD3 [3]) | robust z cilia incidence difference (mIMCD3 [4]) | robust z cilia incidence difference (mIMCD3 [5]) | robust z score of cilia incidence (mIMCD3 [6])
Cc1cc(C(C)(C)C)c(O)c(C)c1CC1=NCCN1 [Oxymetazoline hydrochloride] | -0.944 ± 2.5 | -0.109 ± 3.1 | -13.6 | -7.09 ± 11 | 6.97 ± 2.4 | -3.06 ± 7 | -10.8 | -6.88 ± 4.5
OC[C@H]1NC[C@@H](O)[C@@H](O)[C@@H]1O [1-Deoxymannojirimycin hydrochloride] | -19.5 ± 0.34 | -0.248 ± 2.8 | 1.67 | -0.655 ± 2.4 | 0.936 ± 3.2 | 4.94 ± 3.5 | 3.38 | -6.93 ± 1.9
O=c1cc(-c2ccccc2)oc2cc(O)c(O)c(O)c12 [Baicalein] | -3.45 ± 9.6 | -6.98 ± 3.7 | -16.2 | -11.1 ± 7.1 | 5.37 ± 2.3 | -10.3 ± 13 | -44.1 | -8.19 ± 8.6
CC1Nc2ccc(Cl)cc2S(=O)(=O)N1 (centres undefined) | -5.15 ± 4.7 | -2.95 ± 0.91 | -1.89 | -1.5 ± 2.5 | 0.967 ± 0.13 | 2.02 ± 3.9 | -0.609 | -11.9 ± 2.7
Nc1cc(N2CCCCC2)nc(N)[n+]1[O-] [Minoxidil] | -6.55 ± 4.8 | 1.53 ± 3.5 | 3.29 | 3.3 ± 6 | 1.27 ± 0.028 | -3.07 ± 8.2 | -0.774 | -6.07 ± 6.7
N[C@@H](CSC(c1ccccc1)(c1ccccc1)c1ccccc1)C(=O)O [S-Trityl-L-cysteine] | -0.804 ± 2.3 | -1.45 ± 4.7 | -4.84 | -1.79 ± 4.2 | 3.43 ± 2.2 | 2.11 ± 2.1 | -2.71 | -3.53 ± 5.4
CC[N+](C)(CC)CC(=O)Nc1c(C)cccc1C [N-Methyllidocaine iodide] | -0.955 ± 1.9 | 1.31 ± 1.1 | 1.59 | 0.478 ± 3.1 | -2.02 ± 2.1 | 2.3 ± 1.4 | 0.939 | -10.2 ± 0.99
O=C(Nc1ccccc1)c1cc([N+](=O)[O-])ccc1Cl | -10.7 ± 5.2 | -7.29 ± 1.3 | -2.18 | -1.79 ± 1.2 | 4.78 ± 1.8 | 3.95 ± 2.4 | -3.56 | -83.3 ± 70
Clc1cccc(Cl)c1NC1=NCCN1 [Clonidine hydrochloride] | 1.72 ± 3.3 | 1.5 ± 4.7 | -1.72 | 0.368 ± 0.67 | -1.5 ± 1.3 | 4.55 ± 2.6 | -3.68 | -6.45 ± 2.9
NS(=O)(=O)c1cccc2c1c([N+](=O)[O-])cc1nc(O)c(O)nc12 [NBQX disodium salt] | -4.24 ± 3.7 | 1.9 ± 2 | 2.03 | 0.472 ± 1.9 | 0.597 ± 1.9 | 0.58 ± 1.4 | 5.39 | -10.6 ± 0.12
CC(C)C[C@H](NC(=O)N1CCCCCC1)C(=O)N[C@H](Cc1cn(C)c2ccccc12)C(=O)N[C@H](Cc1ccccn1)C(=O)O | -4.02 ± 2.9 | -0.182 ± 0.62 | 1.36 | -0.973 ± 1.6 | 1.57 ± 1.6 | 2.09 ± 3.1 | -1.57 | -14.2 ± 4.7
N[C@@H](C(=O)O)c1ccc(C(=O)O)c(C(=O)O)c1 | -12 ± 5.9 | -2.42 ± 2.5 | 0.444 | 0.256 ± 0.53 | 3.4 ± 0.51 | 4.51 ± 2.5 | 2.24 | -9.55 ± 5.8
Nc1c2c(nc3ccccc13)CCCC2 [Tacrine hydrochloride] | -2.12 ± 2.4 | -8.77 ± 8.2 | -12.3 | -7.11 ± 9 | 1.78 ± 3.1 | -3.61 ± 6.7 | -14.2 | -8.59 ± 6.5
NC(=O)N1c2ccccc2CC(O)c2ccccc21 (centres undefined) [Licarbazepine] | -16.2 ± 22 | -4.93 ± 3.1 | -0.311 | -0.578 ± 1.2 | 1.43 ± 1.1 | 3.78 ± 0.41 | 1.03 | -93.7 ± 140
CC(=N)NCc1cccc(CN)c1 [1400W dihydrochloride] | -5.28 ± 14 | -3.3 ± 0.5 | -0.354 | 1.38 ± 1.6 | -1.73 ± 1.1 | 2.73 ± 2.1 | -1.47 | -8.31 ± 0.19
O=C(O)/C=C/c1ccc(Cn2ccnc2)cc1 [Ozagrel hydrochloride] | -4.62 ± 6.4 | 0.4 ± 0.9 | 0.923 | 0.0086 ± 2.5 | 1.57 ± 0.21 | 3.21 ± 3 | -0.826 | -133 ± 140
Cn1nnc2c(C(N)=O)ncn2c1=O [Temozolomide] | -3.16 ± 0.78 | 0.805 ± 3.2 | -3.73 | -1.01 ± 0.78 | 0.857 ± 0.3 | 2.66 ± 2.3 | -4.81 | -3.529 ± 0.011
CC(C)SC(=N)N [S-Isopropylisothiourea hydrobromide] | -3.77 ± 3.8 | -1.91 ± 3.5 |  |  | -4.19 ± 1.9 |  |  | -10.6 ± 2.5
O=C1CC2(CCCC2)CC(=O)N1CCCCN1CCN(c2ncccn2)CC1 [Buspirone hydrochloride] | -2.72 ± 1.6 | -5.43 ± 0.79 |  |  | -3.33 ± 3.4 |  |  | -12.7 ± 4.3
CCOC(=O)[C@]12CC1/C(=N\O)c1ccccc1O2 (some centres undefined) | -7.68 ± 4.3 | 0.406 ± 2.9 |  |  | -0.514 ± 3.9 |  |  | -17.8 ± 4.1
Nc1nc2c(ccc3ccccc32)s1 | -28 ± 34 | -0.881 ± 2.6 |  |  | 0.26 ± 0.86 |  |  | -4.23 ± 0.43
COc1cccc(-c2cc(=O)c3ccccc3o2)c1N | -19.9 ± 17 | -7.68 ± 0.091 |  |  | -2.19 ± 0.54 |  |  | -19.9 ± 2.4
CC1=C(C(=O)OCCN(Cc2ccccc2)c2ccccc2)C(c2cccc([N+](=O)[O-])c2)C(P2(=O)OCC(C)(C)CO2)=C(C)N1 (centres undefined) [Efonidipine hydrochloride monoethanolate] | -7.98 ± 2.1 | -15.6 ± 6.5 |  |  | -4.12 ± 9.8 |  |  | -10.2 ± 5.9
Clc1cccc2c1CN(C1=NCCN1)C2 | -1.61 ± 1 | -0.98 ± 3.4 |  |  | 1.29 ± 0.74 |  |  | -7.05 ± 2.2
NC(=O)Nc1sc(-c2ccc(F)cc2)cc1C(N)=O | -93.5 ± 67 | -124 ± 110 |  |  | -7.71 ± 1 |  |  | -26.4 ± 0.3
C#CCN1C(C)=C(C(=O)OC)C(c2cccc([N+](=O)[O-])c2)C(C(=O)OCC)=C1C (centres undefined) | -16.9 ± 14 | -14.8 ± 3.5 |  |  | 4.32 ± 0.22 |  |  | -13.1 ± 0.69
CC(C)NC[C@@H](O)COc1cccc2ccccc12 [(R)-(+)-Propranolol hydrochloride] | 1.58 ± 0.57 | 0.92 ± 3.2 | -8.69 | -5.97 ± 1.6 | 4.17 ± 1.1 | -0.998 ± 0.045 | -14.2 | -0.714 ± 2.6
FC(F)(F)c1cccc(-c2noc(-c3cc(-c4ccccc4)c(C(F)(F)F)s3)n2)c1 | -6.75 ± 1.5 | -4.53 ± 0.43 |  |  | -1.54 ± 4.8 |  |  | -11.6 ± 7

7 of these compounds in a different format:
SMILES	robust z score of cell number (mIMCD3 [1]; siRNA: siRpgrip1l)	robust z score of cell number (mIMCD3 [1]; siRNA: siScr)	robust z cell number difference (mIMCD3 [2]; siRNA: siRpgrip1l)	robust z cell number difference (mIMCD3 [2]; siRNA: siScr)	robust z score of cilia incidence (mIMCD3 [3])	robust z cilia incidence difference (mIMCD3 [4])	robust z cilia incidence difference (mIMCD3 [5])	robust z score of cilia incidence (mIMCD3 [6])
OC[C@H]1NC[C@@H](O)[C@@H](O)[C@@H]1O [1-Deoxymannojirimycin hydrochloride]	-19.5 ± 0.34	-0.248 ± 2.8	1.67	-0.655 ± 2.4	0.936 ± 3.2	4.94 ± 3.5	3.38	-6.93 ± 1.9
CC1Nc2ccc(Cl)cc2S(=O)(=O)N1 (centres undefined)	-5.15 ± 4.7	-2.95 ± 0.91	-1.89	-1.5 ± 2.5	0.967 ± 0.13	2.02 ± 3.9	-0.609	-11.9 ± 2.7
N[C@@H](CSC(c1ccccc1)(c1ccccc1)c1ccccc1)C(=O)O [S-Trityl-L-cysteine]	-0.804 ± 2.3	-1.45 ± 4.7	-4.84	-1.79 ± 4.2	3.43 ± 2.2	2.11 ± 2.1	-2.71	-3.53 ± 5.4
Clc1cccc(Cl)c1NC1=NCCN1 [Clonidine hydrochloride]	1.72 ± 3.3	1.5 ± 4.7	-1.72	0.368 ± 0.67	-1.5 ± 1.3	4.55 ± 2.6	-3.68	-6.45 ± 2.9
CC(=N)NCc1cccc(CN)c1 [1400W dihydrochloride]	-5.28 ± 14	-3.3 ± 0.5	-0.354	1.38 ± 1.6	-1.73 ± 1.1	2.73 ± 2.1	-1.47	-8.31 ± 0.19
O=C1CC2(CCCC2)CC(=O)N1CCCCN1CCN(c2ncccn2)CC1 [Buspirone hydrochloride]	-2.72 ± 1.6	-5.43 ± 0.79			-3.33 ± 3.4			-12.7 ± 4.3
Clc1cccc2c1CN(C1=NCCN1)C2	-1.61 ± 1	-0.98 ± 3.4			1.29 ± 0.74			-7.05 ± 2.2
